This is one part of the list.
Tests used:
Test in all cases: glycan array binding signal (z-score within array); higher = stronger binding
Conditions in all cases: glycan notation: IUPAC condensed, linker removed
[1] = target: Neu5Ac(a2-3)Gal(b1-3)GlcNAc(b1-3)Gal(b1-3)GlcNAc
In short: (§1)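 Negative Z-scores can be read as non-binding. The Z-score is calculated within each array and then averaged across arrays of one protein sequence at different concentrations or buffers and across linkers. Arrays, 3228 in all, were curated from the Consortium for Functional Glycomics database and kept only where the protein sequence was available.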

[2] = target: Neu5Ac(a2-3)Gal(b1-3)GlcNAc(b1-3)Gal(b1-4)GlcNAc
In short: as §1

[3] = target: Neu5Ac(a2-3)Gal(b1-3)GlcNAc(b1-3)GalNAc
In short: as §1

[4] = target: Neu5Ac(a2-3)Gal(b1-3)GlcNAc6S
In short: as §1

[5] = target: Neu5Ac(a2-3)Gal(b1-3)[Fuc(a1-4)]GlcNAc
In short: as §1

[6] = target: Neu5Ac(a2-3)Gal(b1-3)[Fuc(a1-4)]GlcNAc(b1-3)Gal(b1-3)[Fuc(a1-4)]GlcNAc
In short: as §1

[7] = target: Neu5Ac(a2-3)Gal(b1-3)[Fuc(a1-4)]GlcNAc(b1-3)Gal(b1-4)[Fuc(a1-3)]GlcNAc
In short: as §1

[8] = target: Neu5Ac(a2-3)Gal(b1-3)[Neu5Ac(a2-3)Gal(b1-4)]GlcNAc
In short: as §1

[9] = target: Neu5Ac(a2-3)Gal(b1-3)[Neu5Ac(a2-6)]GalNAc
In short: as §1

Neu5Ac(a2-3)Gal(b1-4)Glc = target: Neu5Ac(a2-3)Gal(b1-4)Glc
In short: as §1

[10] = target: Neu5Ac(a2-3)Gal(b1-4)GlcNAc
In short: as §1

[11] = target: Neu5Ac(a2-3)Gal(b1-4)GlcNAc(b1-2)Man(a1-3)[GlcNAc(b1-2)Man(b1-4)GlcNAc(b1-2)Man(a1-6)]Man(b1-4)GlcNAc(b1-4)GlcNAc
In short: as §1

[12] = target: Neu5Ac(a2-3)Gal(b1-4)GlcNAc(b1-2)Man(a1-3)[Neu5Ac(a2-6)Gal(b1-4)GlcNAc(b1-2)Man(a1-6)]Man(b1-4)GlcNAc(b1-4)GlcNAc
In short: as §1

[13] = target: Neu5Ac(a2-3)Gal(b1-4)GlcNAc(b1-3)Gal(b1-3)GlcNAc
In short: as §1

[14] = target: Neu5Ac(a2-3)Gal(b1-4)GlcNAc(b1-3)Gal(b1-4)GlcNAc
In short: as §1

[15] = target: Neu5Ac(a2-3)Gal(b1-4)GlcNAc(b1-3)Gal(b1-4)GlcNAc(b1-3)Gal(b1-4)GlcNAc
In short: as §1

[16] = target: Neu5Ac(a2-3)Gal(b1-4)GlcNAc(b1-3)Gal(b1-4)[Fuc(a1-3)]GlcNAc
In short: as §1

[17] = target: Neu5Ac(a2-3)Gal(b1-4)GlcNAc(b1-3)GalNAc
In short: as §1

[18] = target: Neu5Ac(a2-3)Gal(b1-4)GlcNAc(b1-6)[Gal(b1-3)]GalNAc
In short: as §1

[19] = target: Neu5Ac(a2-3)Gal(b1-4)GlcNAc(b1-6)[Neu5Ac(a2-3)Gal(b1-3)]GalNAc
In short: as §1

[20] = target: Neu5Ac(a2-3)Gal(b1-4)GlcNAc6S
In short: as §1

[21] = target: Neu5Ac(a2-3)Gal(b1-4)[Fuc(a1-3)]GlcNAc
In short: as §1

[22] = target: Neu5Ac(a2-3)Gal(b1-4)[Fuc(a1-3)]GlcNAc(b1-3)Gal
In short: as §1

[23] = target: Neu5Ac(a2-3)Gal(b1-4)[Fuc(a1-3)]GlcNAc(b1-3)Gal(b1-4)GlcNAc
In short: as §1

[24] = target: Neu5Ac(a2-3)Gal(b1-4)[Fuc(a1-3)]GlcNAc(b1-3)Gal(b1-4)[Fuc(a1-3)]GlcNAc(b1-3)Gal(b1-4)[Fuc(a1-3)]GlcNAc
In short: as §1

[25] = target: Neu5Ac(a2-3)Gal(b1-4)[Fuc(a1-3)]GlcNAc(b1-3)GalNAc
In short: as §1

[26] = target: Neu5Ac(a2-3)Gal(b1-4)[Fuc(a1-3)]GlcNAc(b1-6)[Gal(b1-3)]GalNAc
In short: as §1

[27] = target: Neu5Ac(a2-3)Gal(b1-4)[Fuc(a1-3)]GlcNAc(b1-6)[Neu5Ac(a2-3)Gal(b1-3)]GalNAc
In short: as §1

[28] = target: Neu5Ac(a2-3)Gal(b1-4)[Fuc(a1-3)]GlcNAc6S
In short: as §1

[29] = target: Neu5Ac(a2-3)Gal6S(b1-4)GlcNAc
In short: as §1

[30] = target: Neu5Ac(a2-3)Gal6S(b1-4)[Fuc(a1-3)]GlcNAc
In short: as §1

Neu5Ac(a2-3)GalNAc = target: Neu5Ac(a2-3)GalNAc
In short: as §1

[31] = target: Neu5Ac(a2-3)GalNAc(b1-4)GlcNAc
In short: as §1

[32] = target: Neu5Ac(a2-3)[GalNAc(b1-4)]Gal(b1-4)Glc
In short: as §1

[33] = target: Neu5Ac(a2-3)[GalNAc(b1-4)]Gal(b1-4)GlcNAc
In short: as §1

[34] = target: Neu5Ac(a2-3)[GalNAc(b1-4)]Gal(b1-4)GlcNAc(b1-3)GalNAc
In short: as §1

[35] = target: Neu5Ac(a2-3)[Neu5Ac(a2-6)]GalNAc
In short: as §1

Neu5Ac(a2-6)Gal = target: Neu5Ac(a2-6)Gal
In short: as §1

Neu5Ac(a2-6)Gal(b1-4)Glc = target: Neu5Ac(a2-6)Gal(b1-4)Glc
In short: as §1

[36] = target: Neu5Ac(a2-6)Gal(b1-4)GlcNAc
In short: as §1

B1: SspB (Streptococcus gordonii), P16952 (protein)
chain: MKNKKEVYGFRKSKVAKTLCGAVLGTALIAFADKAVFADEVTETTSTSTVEVATTGNPATNLPEAQGEMSQVAKESQAKAGSKESALPVEVSSADLDKAVADAKSAGVKVVQDETKDKGTATTATDNAQKQDEIKSDYAKQAEEIKTTTEAYKKEVAAHQAETDKINAENKAADDKYQKDLKSHQEEVEKINTANATAKAEYEAKLAQYQKDLATVKKANEDSQQDYQNKLSAYQTELARVQKANAEAKEAYEKAVKENTAKNEALKVENEAIKQRNETAKATYEAAMKQYEADLAAIKKANEDNDADYQAKLAAYQTELARVQKANAEAKEAYDKAVKENTAKNTAIQAENEAIKQRNETAKATYDAAVKKYEADLAAVKQANATNEADYQAKLAAYQTELARVQKANADAKATYEKAVEDNKAKNAAIKAENEEIKQRNAVAKTDYEAKLAKYEADLAKYKKEFAAYTAALAEAESKKKQDGYLSEPRSQSLNFKSEPNAIRTIDSSVHQYGQQELDALVKSWGISPTNPDRKKSRAYSYFNAINSNNTYAKLVLEKDKPVDVTYTGLKNSSFNGKKISKVVYTYTLKETGFNDGTKMTMFASSDPTVTAWYNDYFTSTNINVKVKFYDEEGQLMNLTGGLVNFSSLNRGNGSGAIDKDAIESVRNFNGRYIPISGSSIKIHENNSAYADSSNAEKSLGARWNTSEWDTTSSPNNWYGAIVGEITQSEISFNMASSKSGNIWFAFNSNINAIGVPTKPVAPTAPTQPMYETEKPLEPAPVAPSYENEPTPPVKTPDQPEPSKPEEPTYETEKPLEPAPVAPSYENEPTPPVKTPDQPEPSKPEEPNYETEKPLEPAPVAPSYENEPTPPVKIPDQPEPSKPEEPTYDPLPTPPLAPTPKQLPTPPVVPTVHFHYSSLLAQPQINKEIKNEDGVDIDRTLVAKQSIVKFELKTEALTAGRPKTTSFVLVDPLPTGYKFDLDATKAASTGFDTTYDEASHTVTFKATDETLATYNADLTKPVETLHPTVVGRVLNDGATYTNNFTLTVNDAYGIKSNVVRVTTPGKPNDPDNPNNNYIKPTKVNKNKEGLNIDGKEVLAGSTNYYELTWDLDQYKGDKSSKEAIQNGFYYVDDYPEEALDVRPDLVKVADEKGNQVSGVSVQQYDSLEAAPKKVQDLLKKANITVKGAFQLFSADNPEEFYKQYVATGTSLVITDPMTVKSEFGKTGGKYENKAYQIDFGNGYATEVVVNNVPKITPKKDVTVSLDPTSENLDGQTVQLYQTFNYRLIGGLIPQNHSEELEDYSFVDDYDQAGDQYTGNYKTFSSLNLTMKDGSVIKAGTDLTSQTTAETDATNGIVTVRFKEDFLQKISLDSPFQAETYLQMRRIAIGTFENTYVNTVNKVAYASNTVRTTTPIPRTPDKPTPIPTPKPKDPDKPETPKEPKVPSPKVEDPSAPIPVSVGKELTTLPKTGTNDATYMPYLGLAALVGFLGLGLAKRKED
glycan array binding signal (z-score) [1]: -0.209 | glycan array binding signal (z-score) [2]: -0.057 | glycan array binding signal (z-score) [3]: 0.045 | glycan array binding signal (z-score) [4]: -1.52 | glycan array binding signal (z-score) [5]: 0.111 | glycan array binding signal (z-score) [6]: 0.462 | glycan array binding signal (z-score) [7]: 0.408 | glycan array binding signal (z-score) [8]: 0.26 | glycan array binding signal (z-score) [9]: 0.321 | glycan array binding signal (z-score) (Neu5Ac(a2-3)Gal(b1-4)Glc): -0.317 | glycan array binding signal (z-score) [10]: -0.756 | glycan array binding signal (z-score) [11]: 0.819 | glycan array binding signal (z-score) [12]: -0.312 | glycan array binding signal (z-score) [13]: 1.9 | glycan array binding signal (z-score) [14]: 0.053 | glycan array binding signal (z-score) [15]: -0.705 | glycan array binding signal (z-score) [16]: -1.85 | glycan array binding signal (z-score) [17]: -0.392 | glycan array binding signal (z-score) [18]: -0.427 | glycan array binding signal (z-score) [19]: -0.999 | glycan array binding signal (z-score) [20]: -0.199 | glycan array binding signal (z-score) [21]: 0.119 | glycan array binding signal (z-score) [22]: -1.3 | glycan array binding signal (z-score) [23]: -0.997 | glycan array binding signal (z-score) [24]: 0.022 | glycan array binding signal (z-score) [25]: 1.45 | glycan array binding signal (z-score) [26]: 0.83 | glycan array binding signal (z-score) [27]: -0.102 | glycan array binding signal (z-score) [28]: 0.987 | glycan array binding signal (z-score) [29]: -1.41 | glycan array binding signal (z-score) [30]: -0.618 | glycan array binding signal (z-score) (Neu5Ac(a2-3)GalNAc): -0.801 | glycan array binding signal (z-score) [31]: -0.22 | glycan array binding signal (z-score) [32]: 0.757 | glycan array binding signal (z-score) [33]: 0.157 | glycan array binding signal (z-score) [34]: 0.463 | glycan array binding signal (z-score) [35]: 0.147 | glycan array binding signal (z-score) (Neu5Ac(a2-6)Gal): 0.974 | glycan array binding signal (z-score) (Neu5Ac(a2-6)Gal(b1-4)Glc): -1.2 | glycan array binding signal (z-score) [36]: 0.259
